Source: article PMC13372662
Results are given in words; binding and its absence hold for the method and conditions named. Binding seen in cells or lysates may run through a third protein. Some entries that bind do so weakly or less than the wild type.

Protein sequences, listed by entry. Tags and fused reporters are not part of them.
UniProt P12004: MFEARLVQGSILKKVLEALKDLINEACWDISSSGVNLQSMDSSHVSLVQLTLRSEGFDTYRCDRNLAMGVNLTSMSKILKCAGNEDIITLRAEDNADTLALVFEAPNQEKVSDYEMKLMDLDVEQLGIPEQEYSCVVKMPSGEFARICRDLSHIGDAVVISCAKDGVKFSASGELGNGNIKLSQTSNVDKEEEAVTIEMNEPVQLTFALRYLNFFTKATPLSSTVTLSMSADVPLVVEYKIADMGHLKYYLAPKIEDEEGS
UniProt P46100: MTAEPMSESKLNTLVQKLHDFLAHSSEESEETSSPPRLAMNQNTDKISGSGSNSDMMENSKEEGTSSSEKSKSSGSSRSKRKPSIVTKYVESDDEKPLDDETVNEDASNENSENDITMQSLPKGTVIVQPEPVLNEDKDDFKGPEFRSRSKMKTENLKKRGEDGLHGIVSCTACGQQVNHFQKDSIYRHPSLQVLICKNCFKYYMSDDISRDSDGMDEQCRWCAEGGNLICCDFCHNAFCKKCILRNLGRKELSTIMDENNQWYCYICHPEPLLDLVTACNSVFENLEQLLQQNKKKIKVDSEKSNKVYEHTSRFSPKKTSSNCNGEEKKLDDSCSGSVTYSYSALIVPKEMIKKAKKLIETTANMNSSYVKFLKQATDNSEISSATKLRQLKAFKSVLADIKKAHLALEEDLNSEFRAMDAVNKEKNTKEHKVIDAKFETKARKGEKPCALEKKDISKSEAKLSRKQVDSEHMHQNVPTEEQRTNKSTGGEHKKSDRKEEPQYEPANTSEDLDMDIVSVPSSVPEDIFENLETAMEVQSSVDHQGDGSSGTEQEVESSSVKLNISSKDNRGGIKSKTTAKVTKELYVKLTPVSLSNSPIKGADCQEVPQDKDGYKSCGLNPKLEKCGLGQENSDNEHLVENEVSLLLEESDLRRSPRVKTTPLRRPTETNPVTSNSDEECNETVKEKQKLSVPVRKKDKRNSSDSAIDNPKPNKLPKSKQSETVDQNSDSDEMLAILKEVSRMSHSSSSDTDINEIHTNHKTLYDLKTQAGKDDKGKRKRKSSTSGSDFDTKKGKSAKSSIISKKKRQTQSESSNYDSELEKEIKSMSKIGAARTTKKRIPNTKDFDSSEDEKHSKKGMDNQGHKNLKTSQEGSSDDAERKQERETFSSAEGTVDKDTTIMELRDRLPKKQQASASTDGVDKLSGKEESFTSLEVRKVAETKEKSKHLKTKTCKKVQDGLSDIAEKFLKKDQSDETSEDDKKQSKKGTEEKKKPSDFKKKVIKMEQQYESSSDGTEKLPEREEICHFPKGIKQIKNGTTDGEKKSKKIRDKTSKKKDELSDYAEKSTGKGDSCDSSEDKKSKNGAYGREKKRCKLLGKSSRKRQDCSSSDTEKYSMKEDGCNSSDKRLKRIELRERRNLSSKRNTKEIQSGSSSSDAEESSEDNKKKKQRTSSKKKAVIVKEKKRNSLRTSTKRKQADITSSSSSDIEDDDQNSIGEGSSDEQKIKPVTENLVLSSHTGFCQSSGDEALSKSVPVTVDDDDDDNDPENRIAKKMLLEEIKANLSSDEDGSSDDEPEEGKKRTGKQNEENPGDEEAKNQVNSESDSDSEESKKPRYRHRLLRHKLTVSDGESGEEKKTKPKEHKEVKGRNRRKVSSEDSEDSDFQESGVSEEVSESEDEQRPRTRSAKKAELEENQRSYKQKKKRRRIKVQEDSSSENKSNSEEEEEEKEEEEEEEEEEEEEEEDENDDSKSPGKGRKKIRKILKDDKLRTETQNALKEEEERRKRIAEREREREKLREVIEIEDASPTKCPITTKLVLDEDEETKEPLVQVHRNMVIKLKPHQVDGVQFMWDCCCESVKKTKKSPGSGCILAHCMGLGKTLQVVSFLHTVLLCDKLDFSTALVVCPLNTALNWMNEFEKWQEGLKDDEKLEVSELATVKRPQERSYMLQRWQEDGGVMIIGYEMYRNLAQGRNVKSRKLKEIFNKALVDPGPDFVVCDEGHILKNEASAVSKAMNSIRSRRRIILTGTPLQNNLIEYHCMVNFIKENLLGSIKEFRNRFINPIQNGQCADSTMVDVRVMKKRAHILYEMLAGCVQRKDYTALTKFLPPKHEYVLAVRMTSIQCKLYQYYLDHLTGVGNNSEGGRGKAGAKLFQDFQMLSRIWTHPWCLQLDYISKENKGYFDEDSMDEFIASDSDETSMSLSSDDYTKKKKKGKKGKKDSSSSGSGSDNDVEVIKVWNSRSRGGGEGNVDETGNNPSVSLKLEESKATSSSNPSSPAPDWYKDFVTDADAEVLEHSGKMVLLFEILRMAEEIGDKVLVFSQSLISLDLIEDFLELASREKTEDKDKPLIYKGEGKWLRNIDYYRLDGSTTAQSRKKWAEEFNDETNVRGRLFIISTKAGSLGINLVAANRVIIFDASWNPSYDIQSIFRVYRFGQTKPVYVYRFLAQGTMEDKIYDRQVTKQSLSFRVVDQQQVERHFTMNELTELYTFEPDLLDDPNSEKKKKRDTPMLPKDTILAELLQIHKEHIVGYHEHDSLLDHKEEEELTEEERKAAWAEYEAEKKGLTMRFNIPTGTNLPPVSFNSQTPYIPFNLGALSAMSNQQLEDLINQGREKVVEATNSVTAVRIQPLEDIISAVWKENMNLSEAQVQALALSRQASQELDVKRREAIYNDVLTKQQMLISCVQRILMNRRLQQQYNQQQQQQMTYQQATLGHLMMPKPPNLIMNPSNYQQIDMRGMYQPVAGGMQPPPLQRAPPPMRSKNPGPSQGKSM

Biological target: PCNA (human (endogenous in eHAP)) (UniProt P12004)
Assay: proximity ligation; Duolink PLA with rabbit anti-HA and mouse anti-PCNA; ATRX-null eHAP cells stably expressing HA-tagged ATRX, pulsed with 10 µM EdU for 10 min, pre-extracted in CSK buffer with 0.2% Triton X-100, fixed; foci per nucleus in EdU+ cells, unchallenged

binding: binds
Substance: HA-tagged ATRX-WT (from UniProt P46100 1-2492)
